Measurements published in article PMC5749900.
No constants are given. Whether binding was seen depends on the method and setting. Binding seen in cells or lysates may run through a third protein. Some binding calls cover weakened binding; strength is not graded here.

The chains behind the UniProt entries cited, without tags or fusion partners. Residues count along the entry.
HCV E2 glycoprotein (JFH1) (Q99IB8, residues 384-750): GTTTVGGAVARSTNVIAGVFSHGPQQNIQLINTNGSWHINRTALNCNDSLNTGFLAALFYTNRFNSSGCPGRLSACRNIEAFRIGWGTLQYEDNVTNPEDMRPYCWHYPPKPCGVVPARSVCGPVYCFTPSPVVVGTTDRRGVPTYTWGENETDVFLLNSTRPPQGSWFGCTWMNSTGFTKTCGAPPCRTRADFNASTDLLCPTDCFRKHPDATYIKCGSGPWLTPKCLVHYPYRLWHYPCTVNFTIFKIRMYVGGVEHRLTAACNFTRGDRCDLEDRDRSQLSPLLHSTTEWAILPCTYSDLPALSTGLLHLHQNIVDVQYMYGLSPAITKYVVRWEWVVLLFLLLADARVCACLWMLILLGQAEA
HCV NS2 protein (JFH1) (Q99IB8, residues 814-1030): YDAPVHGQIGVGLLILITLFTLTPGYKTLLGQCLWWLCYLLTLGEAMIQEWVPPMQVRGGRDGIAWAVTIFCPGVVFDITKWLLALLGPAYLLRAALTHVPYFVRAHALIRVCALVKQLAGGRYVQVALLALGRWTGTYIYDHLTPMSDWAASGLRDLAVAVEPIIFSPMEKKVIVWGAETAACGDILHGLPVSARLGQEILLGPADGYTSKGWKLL
HCV NS5A protein (Q99IB8, residues 1977-2442): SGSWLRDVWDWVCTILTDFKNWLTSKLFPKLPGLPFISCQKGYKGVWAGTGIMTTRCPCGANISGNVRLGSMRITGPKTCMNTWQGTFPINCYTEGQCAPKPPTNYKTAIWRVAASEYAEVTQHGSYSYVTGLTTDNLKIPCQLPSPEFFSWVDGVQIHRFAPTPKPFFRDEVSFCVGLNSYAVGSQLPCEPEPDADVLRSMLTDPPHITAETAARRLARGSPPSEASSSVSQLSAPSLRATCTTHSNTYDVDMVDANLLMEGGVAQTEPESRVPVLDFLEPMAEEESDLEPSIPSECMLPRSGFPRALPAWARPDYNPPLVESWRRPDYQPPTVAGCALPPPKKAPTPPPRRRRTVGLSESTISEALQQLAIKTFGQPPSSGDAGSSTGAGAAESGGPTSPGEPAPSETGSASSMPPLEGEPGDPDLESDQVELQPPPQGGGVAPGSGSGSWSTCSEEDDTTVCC

Key:
[1] = biological target: HCV NS2 protein (JFH1) (hepatitis C virus, strain JFH1) (UniProt Q99IB8); test: co-IP; lysates of 1 million electroporated Huh7.5 cells (72h; parental or p7 ATMI mutant virus, alone or with wild-type p7); 50 mM Tris-Cl pH 7.5, 150 mM NaCl, 1% Nonidet P-40, 1% sodium deoxycholate, 0.1% SDS; rabbit NS2 antibody overnight at 4°C, protein A/G agarose beads; quantitative western blot
[2] = biological target: HCV E2 glycoprotein (JFH1) (hepatitis C virus, strain JFH1) (UniProt Q99IB8); test: co-IP; lysates of 1 million electroporated Huh7.5 cells (72h; parental or p7 ATMI mutant virus, alone or with wild-type p7); 50 mM Tris-Cl pH 7.5, 150 mM NaCl, 1% Nonidet P-40, 1% sodium deoxycholate, 0.1% SDS; AR3A antibody against E2 overnight at 4°C, protein A/G agarose beads; quantitative western blot
[3] = biological target: HCV NS2 protein (JFH1) (hepatitis C virus, strain JFH1) (UniProt Q99IB8); test: co-IP; cells expressing parental virus (or mutant virus with wild-type p7); 1 million electroporated Huh7.5 cells cross-linked with 1 mM DSP 30 min at room temperature; lysis in 50 mM Tris pH 7.4, 150 mM NaCl, 1 mM EDTA, 0.5% n-dodecyl-β-maltoside; rabbit NS2 antibody, protein A/G agarose beads; quantitative western blot

## HCV E2 glycoprotein (JFH1) (from UniProt Q99IB8 384-750)
[1]
  binding: binds

## HCV NS2 protein (JFH1) (from UniProt Q99IB8 814-1030)
[2]
  binding: binds

## HCV NS5A protein (from UniProt Q99IB8 1977-2442)
[3]
  binding: binds
